Reference: publication PMC12069319, “Transcriptional co-regulator OCA-B/Pou2af1 restricts Th2 differentiation”
Construct, isoform or probe ends are uncertain for at least one entry. For some of these results: Negatives hold for the conditions tested.

Columns and labels:
Test in all cases: EMSA
[1] = test system: GATA3; settings: EMSA: 0.6X buffer D (1X: 20 mM HEPES, 100 mM KCl, 1 mM DTT), 50 ng/ul poly-dI/dC, 1 ug/ul BSA, on ice 15 min, 6% native PAGE in 0.5X TBE; recombinant protein; protein details: FLAG (anti-FLAG purified)
[2] = test system: GATA3 + OCA-B; settings: no OCA-B supershift, GATA3 alone binds; EMSA: 0.6X buffer D (1X: 20 mM HEPES, 100 mM KCl, 1 mM DTT), 50 ng/ul poly-dI/dC, 1 ug/ul BSA, on ice 15 min, 6% native PAGE in 0.5X TBE; recombinant protein
[3] = test system: Oct1 DNA binding domain (Oct1-DBD) + OCA-B; settings: no OCA-B supershift, Oct1-DBD alone binds; EMSA: 0.6X buffer D (1X: 20 mM HEPES, 100 mM KCl, 1 mM DTT), 50 ng/ul poly-dI/dC, 1 ug/ul BSA, on ice 15 min, 6% native PAGE in 0.5X TBE; recombinant protein; protein details: His (pET28a),C-terminal twinstrep and FLAG

| Sequence | binding result [1] | binding result [2] | binding result [3] |
| --- | --- | --- | --- |
| CACCATGCAAAGGATGTGCGCGGACTCCCTTCCATTTGCTGGCCTCTTATCTGATA (double strand) [RHS6-Cy5] | binds | no binding |  |
| TCGAGAAGCGCTGATTAGCATCTGTCATTA (double strand) [RHS5_12-Cy5] |  | no binding | no binding |
